# Experimental data as given in ChEMBL document CHEMBL4316593 (Eur J Med Chem, 2019).
# Further values from the same series stand in other lists.
# What was measured:
# Assay type in all cases: cell-based
# Settings in all cases: U-87MG ATCC
# [1] = Inhibition of RTK/PI3K/AKT/mTOR signaling in human U87 cells assessed as down regulation of MMD gene expression at cytotoxic IC50 measured after 48 hrs relative to control
# [2] = Inhibition of RTK/PI3K/AKT/mTOR signaling in human U87 cells assessed as down regulation of TPD52L2 gene expression at cytotoxic IC50 measured after 48 hrs relative to control
# [3] = Inhibition of RTK/PI3K/AKT/mTOR signaling in human U87 cells assessed as down regulation of DNAJC1 gene expression at cytotoxic IC50 measured after 48 hrs relative to control
# [4] = Inhibition of RTK/PI3K/AKT/mTOR signaling in human U87 cells assessed as up regulation of CA9 gene expression at cytotoxic IC50 measured after 48 hrs relative to control
# [5] = Inhibition of RTK/PI3K/AKT/mTOR signaling in human U87 cells assessed as up regulation of chromosome 14 open reading frame 159 gene expression at cytotoxic IC50 measured after 48 hrs relative to control
# [6] = Inhibition of RTK/PI3K/AKT/mTOR signaling in human U87 cells assessed as up regulation of ALDH1L2 gene expression at cytotoxic IC50 measured after 48 hrs relative to control
# [7] = Inhibition of RTK/PI3K/AKT/mTOR signaling in human U87 cells assessed as down regulation of GOT1 gene expression at cytotoxic IC50 measured after 48 hrs relative to control
# [8] = Inhibition of RTK/PI3K/AKT/mTOR signaling in human U87 cells assessed as down regulation of RBM19 gene expression at cytotoxic IC50 measured after 48 hrs relative to control
# [9] = Inhibition of RTK/PI3K/AKT/mTOR signaling in human U87 cells assessed as down regulation of RAB3IP gene expression at cytotoxic IC50 measured after 48 hrs relative to control
# [10] = Inhibition of RTK/PI3K/AKT/mTOR signaling in human U87 cells assessed as up regulation of septin 5 gene expression at cytotoxic IC50 measured after 48 hrs relative to control
# [11] = Inhibition of RTK/PI3K/AKT/mTOR signaling in human U87 cells assessed as down regulation of DDX49 gene expression at cytotoxic IC50 measured after 48 hrs relative to control
# [12] = Inhibition of RTK/PI3K/AKT/mTOR signaling in human U87 cells assessed as down regulation of FDFT1 gene expression at cytotoxic IC50 measured after 48 hrs relative to control
# [13] = Inhibition of RTK/PI3K/AKT/mTOR signaling in human U87 cells assessed as up regulation of NUPR1 gene expression at cytotoxic IC50 measured after 48 hrs relative to control
# [14] = Inhibition of RTK/PI3K/AKT/mTOR signaling in human U87 cells assessed as up regulation of GJB2 gene expression at cytotoxic IC50 measured after 48 hrs relative to control
# [15] = Inhibition of RTK/PI3K/AKT/mTOR signaling in human U87 cells assessed as down regulation of HABP4 gene expression at cytotoxic IC50 measured after 48 hrs relative to control
# [16] = Inhibition of RTK/PI3K/AKT/mTOR signaling in human U87 cells assessed as down regulation of NIPBL gene expression at cytotoxic IC50 measured after 48 hrs relative to control
# [17] = Inhibition of RTK/PI3K/AKT/mTOR signaling in human U87 cells assessed as up regulation of olfactomedin like 2A gene expression at cytotoxic IC50 measured after 48 hrs relative to control
# [18] = Inhibition of RTK/PI3K/AKT/mTOR signaling in human U87 cells assessed as down regulation of LACC1 gene expression at cytotoxic IC50 measured after 48 hrs relative to control
# [19] = Inhibition of RTK/PI3K/AKT/mTOR signaling in human U87 cells assessed as down regulation of PMP22 gene expression at cytotoxic IC50 measured after 48 hrs relative to control
# [20] = Inhibition of RTK/PI3K/AKT/mTOR signaling in human U87 cells assessed as up regulation of SIN3A gene expression at cytotoxic IC50 measured after 48 hrs relative to control
# [21] = Inhibition of RTK/PI3K/AKT/mTOR signaling in human U87 cells assessed as down regulation of PPP2CA gene expression at cytotoxic IC50 measured after 48 hrs relative to control
# [22] = Inhibition of RTK/PI3K/AKT/mTOR signaling in human U87 cells assessed as down regulation of SQOR gene expression at cytotoxic IC50 measured after 48 hrs relative to control
# [23] = Inhibition of RTK/PI3K/AKT/mTOR signaling in human U87 cells assessed as down regulation of SPTBN1 gene expression at cytotoxic IC50 measured after 48 hrs relative to control
# [24] = Inhibition of RTK/PI3K/AKT/mTOR signaling in human U87 cells assessed as down regulation of RNF168 gene expression at cytotoxic IC50 measured after 48 hrs relative to control
# [25] = Inhibition of RTK/PI3K/AKT/mTOR signaling in human U87 cells assessed as down regulation of CDC25A gene expression at cytotoxic IC50 measured after 48 hrs relative to control
# [26] = Inhibition of RTK/PI3K/AKT/mTOR signaling in human U87 cells assessed as up regulation of LYR motif containing 2 gene expression at cytotoxic IC50 measured after 48 hrs relative to control
# [27] = Inhibition of RTK/PI3K/AKT/mTOR signaling in human U87 cells assessed as down regulation of ECM1 gene expression at cytotoxic IC50 measured after 48 hrs relative to control
# [28] = Inhibition of RTK/PI3K/AKT/mTOR signaling in human U87 cells assessed as down regulation of EIF4E3 gene expression at cytotoxic IC50 measured after 48 hrs relative to control
# [29] = Inhibition of RTK/PI3K/AKT/mTOR signaling in human U87 cells assessed as up regulation of cytochrome c oxidase III gene expression at cytotoxic IC50 measured after 48 hrs relative to control
# [30] = Inhibition of RTK/PI3K/AKT/mTOR signaling in human U87 cells assessed as down regulation of PSMD1 gene expression at cytotoxic IC50 measured after 48 hrs relative to control
# [31] = Inhibition of RTK/PI3K/AKT/mTOR signaling in human U87 cells assessed as up regulation of TMEM184A gene expression at cytotoxic IC50 measured after 48 hrs relative to control
# [32] = Inhibition of RTK/PI3K/AKT/mTOR signaling in human U87 cells assessed as up regulation of BCL2 like 1 gene expression at cytotoxic IC50 measured after 48 hrs relative to control
# [33] = Inhibition of RTK/PI3K/AKT/mTOR signaling in human U87 cells assessed as down regulation of MIS18A gene expression at cytotoxic IC50 measured after 48 hrs relative to control
structure (smiles),measurement,setting,value
CC(=O)C(=NNc1ccccc1C#N)C(C)=O,log2FC,[1],-0.743
same,log2FC,[2],-0.589
same,log2FC,[3],-0.701
same,log2FC,[4],4.1
same,log2FC,[5],1.11
same,log2FC,[6],2.44
same,log2FC,[7],-0.997
same,log2FC,[8],-0.934
same,log2FC,[9],-0.638
same,log2FC,[10],1.57
same,log2FC,[11],-0.669
same,log2FC,[12],-0.625
same,log2FC,[13],4.87
same,log2FC,[14],1.66
same,log2FC,[15],-1.34
same,log2FC,[16],-0.743
same,log2FC,[17],1.07
same,log2FC,[18],-1.18
same,log2FC,[19],-0.98
same,log2FC,[20],0.484
same,log2FC,[21],-0.401
same,log2FC,[22],-1.32
same,log2FC,[23],-0.379
same,log2FC,[24],-1.04
same,log2FC,[25],-1.87
same,log2FC,[26],0.785
same,log2FC,[27],-1.39
same,log2FC,[28],-1.02
same,log2FC,[29],1.02
same,log2FC,[30],-1.04
same,log2FC,[31],1.88
same,log2FC,[32],1.49
same,log2FC,[33],-0.992
